Measured values: patent US10159726B2, “Peptides, combination of peptides and scaffolds for use in immunotherapeutic treatment of various cancers” (Immatics Biotechnologies GmbH, priority 2015, dated 2018)

Legend:
Set-up in all cases: species or system human
[1] = test system: HLA-A*24 molecules of primary tumors; assay: Identification and relative LC-MS quantitation of HLA-A*24 tumor-associated peptides presented on tissue samples (XPRESIDENT presentation profiles); details: for ENTITIES: Table 9A: selected HLA-A*24-binding tumor-associated peptides, cancer entities on which the peptide was found presented; for Peptide Presentation on cancer entities: Table 9B: selected HLA-A*24 peptides, presentation on additional cancer entities
[2] = test system: source genes of selected peptides; assay: Expression profiling of source genes by in-house RNAseq, tumor vs normal tissues (target coverage); details: for Target coverage, over-expression of source gene, AML: AML (N = 7); for Target coverage, over-expression of source gene, AML / Target coverage, over-expression of source gene, BRCA / Target coverage, over-expression of source gene, CLL / Target coverage, over-expression of source gene, CRC / Target coverage, over-expression of source gene, GB / Target coverage, over-expression of source gene, HCC / Target coverage, over-expression of source gene, OC / Target coverage, over-expression of source gene, OSCAR / Target coverage, over-expression of source gene, PC / Target coverage, over-expression of source gene, RCC / Target coverage, over-expression of source gene, SCLC / Target coverage, over-expression of source gene, pNSCLC: share of tumors with more than 1.5-fold higher expression than highest relevant normal tissue, in-house RNASeq; for Target coverage, over-expression of source gene, BRCA: BRCA (N = 10); for Target coverage, over-expression of source gene, CLL: CLL (N = 10); for Target coverage, over-expression of source gene, CRC: CRC (N = 20); for Target coverage, over-expression of source gene, GB: GB (N = 24); for Target coverage, over-expression of source gene, HCC: HCC (N = 15); for Target coverage, over-expression of source gene, OC: OC (N = 12); for Target coverage, over-expression of source gene, OSCAR: OSCAR (N = 11); for Target coverage, over-expression of source gene, PC: PC (N = 26); for Target coverage, over-expression of source gene, RCC: RCC (N = 10); for Target coverage, over-expression of source gene, SCLC: SCLC (N = 10); for Target coverage for source genes of selected peptides, GBC_CCC (N = 10): gallbladder adenocarcinoma and cholangiocarcinoma; for Target coverage for source genes of selected peptides, GC (N = 11): gastric cancer; for Target coverage for source genes of selected peptides, MEL (N = 10): melanoma; for Target coverage for source genes of selected peptides, NHL (N = 10): non-Hodgkin lymphoma; for Target coverage, over-expression of source gene, pNSCLC: pNSCLC (N = 11); for Target coverage for source genes of selected peptides, PCA (n = 10): prostate cancer and benign prostate hyperplasia; for Target coverage for source genes of selected peptides, UBC (N = 10): urinary bladder cancer; for Target coverage for source genes of selected peptides, UTC (N = 10): uterine cancer
[3] = test system: source genes of selected peptides; assay: Target coverage of source genes in tumor entities based on TCGA Research Network data; details: over-expressed = more than 2-fold above the highest 75% percentile of normal organs; for Target coverage, over-expression category of source gene, BLCA (N = 408): Bladder urothelial carcinoma; for Target coverage, over-expression category of source gene, CESC (N = 307): Cervical squamous cell carcinoma and endocervical adenocarcinoma; for Target coverage, over-expression category of source gene, CHOL (N = 36): Cholangiocarcinoma; for Target coverage, over-expression category of source gene, HNSC (N = 521): Head and neck squamous cell carcinoma; for Target coverage, over-expression category of source gene, DLBC (N = 48): Lymphoid neoplasm diffuse large B-cell lymphoma; for Target coverage, over-expression category of source gene, MESO (N = 87): Mesothelioma
[4] = share of tumors with more than 1.5-fold higher expression than the highest-expressing relevant normal tissue, in-house RNAseq

Substance	ENTITIES [1]	Target coverage, over-expression of source gene, AML [2]	Target coverage, over-expression of source gene, BRCA [2]	Target coverage, over-expression of source gene, CLL [2]	Target coverage, over-expression of source gene, CRC [2]	Target coverage, over-expression of source gene, GB [2]	Target coverage, over-expression of source gene, HCC [2]	Target coverage, over-expression of source gene, OC [2]	Target coverage, over-expression of source gene, OSCAR [2]	Target coverage, over-expression of source gene, PC [2]	Target coverage, over-expression of source gene, RCC [2]	Target coverage, over-expression of source gene, SCLC [2]	Target coverage for source genes of selected peptides, GBC_CCC (N = 10) [2, 4]	Target coverage for source genes of selected peptides, GC (N = 11) [2, 4]	Target coverage for source genes of selected peptides, MEL (N = 10) [2, 4]	Target coverage for source genes of selected peptides, NHL (N = 10) [2, 4]	Target coverage, over-expression of source gene, pNSCLC [2]	Target coverage, over-expression category of source gene, BLCA (N = 408) [3]	Target coverage, over-expression category of source gene, CESC (N = 307) [3]	Target coverage, over-expression category of source gene, HNSC (N = 521) [3]	further results
363: peptide found in SLC7A11 (gene looked up) (SYAELGTTI; listed as Homo sapiens) [compound 363]	GB, NSCLC, GC	I (<19% over-expression = I)	I (<19% over-expression = I)	I (<19% over-expression = I)	I (<19% over-expression = I)	II (20-49% = II)	I (<19% over-expression = I)	I (<19% over-expression = I)	II (20-49% = II)	I (<19% over-expression = I)	I (<19% over-expression = I)	I (<19% over-expression = I)	I (<19% over-expression = I)	I (<19% over-expression = I)	I (<19% over-expression = I)	I (<19% over-expression = I)	I (<19% over-expression = I)	C (>=5% of tumors above the cutoff, but <20%)	C (>=5% of tumors above the cutoff, but <20%)	C (>=5% of tumors above the cutoff, but <20%)	Target coverage for source genes of selected peptides, HNSCC (N = 10) ([2]; head and neck small cell carcinoma, share of tumors with more than 1.5-fold higher expression than the highest-expressing relevant normal tissue, in-house RNAseq): I (<19% over-expression = I); Target coverage for source genes of selected peptides, PCA (n = 10) [2, 4]: I (<19% over-expression = I); Target coverage for source genes of selected peptides, UBC (N = 10) [2, 4]: I (<19% over-expression = I); Target coverage for source genes of selected peptides, UTC (N = 10) [2, 4]: I (<19% over-expression = I); Target coverage, over-expression category of source gene, CHOL (N = 36) [3]: C (>=5% of tumors above the cutoff, but <20%); Target coverage, over-expression category of source gene, LGG (N = 534) ([3]; Lower grade glioma): B (>=20% of tumors above the cutoff, but <50%)
372: peptide found in NUP210 (gene looked up) (VYVIEPHSMEF; listed as Homo sapiens) [compound 372]	–	I (<19% over-expression = I)	I (<19% over-expression = I)	II (20-49% = II)	I (<19% over-expression = I)	I (<19% over-expression = I)	I (<19% over-expression = I)	I (<19% over-expression = I)	I (<19% over-expression = I)	I (<19% over-expression = I)	I (<19% over-expression = I)	II (20-49% = II)	–	–	–	–	I (<19% over-expression = I)	B (>=20% of tumors above the cutoff, but <50%)	A (>=50% of tumors above the cutoff)	C (>=5% of tumors above the cutoff, but <20%)	Peptide Presentation on cancer entities [1]: NSCLC; Target coverage, over-expression category of source gene, CHOL (N = 36) [3]: C (>=5% of tumors above the cutoff, but <20%); Target coverage, over-expression category of source gene, DLBC (N = 48) [3]: A (>=50% of tumors above the cutoff); Target coverage, over-expression category of source gene, MESO (N = 87) [3]: C (>=5% of tumors above the cutoff, but <20%)
374: peptide found in PRKDC (gene looked up) (VFLPRVTEL; listed as Homo sapiens) [compound 374]	–	I (<19% over-expression = I)	III (50-69% = III)	I (<19% over-expression = I)	II (20-49% = II)	III (50-69% = III)	I (<19% over-expression = I)	III (50-69% = III)	II (20-49% = II)	I (<19% over-expression = I)	I (<19% over-expression = I)	IV (>70% = IV)	–	–	–	–	III (50-69% = III)	C (>=5% of tumors above the cutoff, but <20%)	C (>=5% of tumors above the cutoff, but <20%)	B (>=20% of tumors above the cutoff, but <50%)	Peptide Presentation on cancer entities [1]: NSCLC
376: peptide found in RAD18 (gene looked up) (VYTPVASRQSL; listed as Homo sapiens) [compound 376]	HCC, NSCLC, GC, GB, PCA	I (<19% over-expression = I)	I (<19% over-expression = I)	I (<19% over-expression = I)	I (<19% over-expression = I)	II (20-49% = II)	I (<19% over-expression = I)	I (<19% over-expression = I)	I (<19% over-expression = I)	I (<19% over-expression = I)	I (<19% over-expression = I)	II (20-49% = II)	II (20-49% = II)	I (<19% over-expression = I)	I (<19% over-expression = I)	II (20-49% = II)	I (<19% over-expression = I)	C (>=5% of tumors above the cutoff, but <20%)	C (>=5% of tumors above the cutoff, but <20%)	C (>=5% of tumors above the cutoff, but <20%)	Target coverage for source genes of selected peptides, PCA (n = 10) [2, 4]: I (<19% over-expression = I); Target coverage for source genes of selected peptides, UBC (N = 10) [2, 4]: II (20-49% = II); Target coverage for source genes of selected peptides, UTC (N = 10) [2, 4]: I (<19% over-expression = I); Target coverage, over-expression category of source gene, DLBC (N = 48) [3]: C (>=5% of tumors above the cutoff, but <20%); Target coverage, over-expression category of source gene, MESO (N = 87) [3]: C (>=5% of tumors above the cutoff, but <20%)
377: peptide found in RPTOR (gene looked up) (QYTPHSHQF; listed as Homo sapiens) [compound 377]	HCC, NSCLC	I (<19% over-expression = I)	I (<19% over-expression = I)	I (<19% over-expression = I)	I (<19% over-expression = I)	II (20-49% = II)	I (<19% over-expression = I)	I (<19% over-expression = I)	I (<19% over-expression = I)	I (<19% over-expression = I)	I (<19% over-expression = I)	III (50-69% = III)	–	–	–	–	II (20-49% = II)	–	–	–	Target coverage, over-expression category of source gene, ACC (N = 79) ([3]; Adrenocortical carcinoma): C (>=5% of tumors above the cutoff, but <20%)

For some of these results: Expression values are those of the mRNA of the gene that encodes the peptide; a gene is named only where it was looked up.
